Data as given in PubChem BioAssay AID720710 (VTT Finland, 2013)

Screen: 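Genes whose loss lowers DNA synthesis when an oncogene drives replication stress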 (primary screen)
Cell system: human U-2 OS bone cancer cells, parental and a cyclin E (CCNE1) overexpressing line
Knock-down reagent: single siRNA against human genes, 1 µM siRNA in the printed spot mix
Timing: 67 h
Conditions: half the arrays: hydroxyurea 2 mM for 16 h, then 3 h recovery; other arrays untreated
Measurement: 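EdU click signal imaged per DAPI-stained nucleus at 67 h; each spot divided by its subgrid median, then z-scored relative to non-targeting control spots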
Reading the numbers: EdU z-score, cyclin E line, hydroxyurea and EdU z-score, parental, hydroxyurea and EdU z-score, cyclin E line, untreated: higher = more DNA synthesis than non-targeting controls
This is a random part of about 1,380 deposited reagents. 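One array per condition without replicates; hydroxyurea arrays received 2 mM for 16 h plus 3 h recovery.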 The numbers tell different reagents against one gene apart. Not all columns of the deposit are shown.

gene symbol	siRNA no.	EdU z-score, cyclin E line, hydroxyurea	EdU z-score, parental, hydroxyurea	EdU z-score, cyclin E line, untreated
TOP1	1	-0.953	-8.45	-1.11
TOP1	2	0.134	-0.892	-0.397
APLF	1	-0.576	0.299	-1.03
APLF	2	1.69	1.15	-0.591
IFI6	1	-1.64	-2.07	-1.05
IFI6	2	-0.243	0.979	0.129
ERCC3	1	-2.81	0.431	-1.03
ERCC3	2	1.08	1.61	0.198
IRGQ	1	-0.163	-1.89	-0.898
IRGQ	2	0.378	2.55	0.679
ZBTB1	1	-0.919	-0.026	-0.542
ZBTB1	2	-0.132	1.68	-0.484
BRCA1	1	-0.232	-3.9	-0.297
BRCA1	2	-0.189	-0.0917	1.14
ERCC5	1	-0.0876	-2.37	-3.14
ERCC5	2	0.182	-0.191	-0.739
POLH	1	-0.43	-1.46	-7.78
POLH	2	-0.263	2.87	-0.072
ACHE	1	-1.79	-1.79	-0.683
ACHE	2	0.456	5.44	0.0679
MRPS9	1	-0.611	2.18	-1.91
MRPS9	2	0.231	3.24	-0.126
CCNA1	1	-0.665	-1.81	-1.34
CCNA1	2	0.144	0.39	-0.189

2 of these entries, set out differently.
{"gene symbol": "IFI6", "siRNA no.": 2, "EdU z-score, cyclin E line, hydroxyurea": -0.243, "EdU z-score, parental, hydroxyurea": 0.979, "EdU z-score, cyclin E line, untreated": 0.129}
{"gene symbol": "ERCC3", "siRNA no.": 1, "EdU z-score, cyclin E line, hydroxyurea": -2.81, "EdU z-score, parental, hydroxyurea": 0.431, "EdU z-score, cyclin E line, untreated": -1.03}
